Experimental data from US9371393B2 (Immunomedics, Inc., priority 2009, dated 2016).

Experiment: general procedure: Fmoc solid-phase peptide synthesis; NovaSyn TGR resin
Details: whole synthesis, scale 0.112 mmol

Q: With “Ac-C-PEG3-C(S-tBu)GQIEYLAKQIVDNAIQQAGC(S-tBu)G-NH2” as the substance, how does the isolated mass read?
A: 32.7 mg
